## Screening data, single-dose tests

Measurements from “University of Dundee, Small-Polar-MMV Screening Library” (2021), ChEMBL document CHEMBL3988442.

A: 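Growth of Mycobacterium tuberculosis over 4 days (cholesterol / DPPC medium with tyloxapol); the read-out is not stated. Compounds at 50 µM. Higher reads as more growth inhibition (inferred: compounds with an IC50 in retests scored well above the rest). Size under these conditions: about 69,000 compounds, about 370 of them at 50% or above in at least one test.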
B: 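Phenotypic screen: M. tuberculosis growth, glucose 7H9 medium, 3 days; the read-out is not stated. Concentration: 50 µM. Direction is inferred from retests: higher values go with more growth inhibition. About 69,000 compounds were tested under these conditions; 1.1% (about 760) showed 50% or more at least once.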

Each number is a percent effect as filed.
How 0% and 100% were set is not recorded. Most values in the screen are low, and negative values occur.
The compounds are a random part of those screened.
Two or more numbers in one place are separate tests of the same structure; such repeats can differ widely.

compound,A,B
O=C(O)C(F)(F)F.O=C(O)C(F)(F)F.[H][C@@]12OCCN(Cc3ccccn3)[C@@]1([H])CC[C@H]2OC,8.981,-15.95
CS(=O)(=O)N1CCC(c2nnc(Cn3ccnc3)n2C2CC2)CC1,13.24 and -3.532,-1.282
[H][C@]12CC[C@@]3(N=C(CC)N(C)C3=O)[C@@]1([H])CN(CC)C2,1.489,17.12
Cc1cccc(OCCC(=O)NC(C)c2nnc3n2CCC3)c1 (stereo not shown),-25.85,-34.84
CC(C#N)CNC(=O)Nc1ccc(Br)cc1 (stereo not shown),12.59,22.89
O=C1NCC2(CCCN(Cc3ccccc3F)C2)Oc2ccccc21 (stereo not shown),-23.4,-5.725
CCOCC1CN(Cc2cnn(C)c2)Cc2nn(C)cc21.O=C(O)C(F)(F)F (stereo not shown),-11.93,-14.73
Cc1cnn(CC2CCCCN2Cc2noc(C3CC3)n2)c1 (stereo not shown),-6.575,-8.755
Cc1cc(CN2CCN(C(=O)NCCc3csc(C)n3)CC2)on1,-6.188,21.86
COc1cc2c(cc1-c1nc3c(cnn3C(C)C3CC3)[nH]1)OCO2 (stereo not shown),4.897 and 1.215,11.46
Oc1cc(C2CCCCN2Cc2cccs2)nc(-c2ccccn2)n1 (stereo not shown),6.37 and -8.127,-5.689
CNC(=O)Cc1cc2nccc(-c3c(OC)cccc3OC)n2n1,-15.5,33.7
Cc1csc(N2CCN(CCCN3CCCC3=O)CC2)n1,-11.81,-21.69
CCCN(CCOC)C(=O)c1cc(Cn2c(C)nc3ccccc32)[nH]n1,12.51,-0.8633 and 10.5
O=C(O)C(F)(F)F.O=C(O)C(F)(F)F.O=C(O)C(F)(F)F.O=C(O)C(F)(F)F.[H][C@@]12CCN(CCN(C)C)[C@@]1([H])CCN2Cc1cccnc1OC,21.34,-1.305 and 11.66
OC1CCN(c2cnnc3ccccc23)CC1,-19.45,-3.415
CCCc1cc(C(=O)N2CC(c3ccncc3)C2)ccn1,-10.64,18.82
Cn1ncnc1-c1ccnc(NCc2ccncc2)n1,-16.31,2.671
Cc1nc(CN(C)C2CCCN(Cc3noc(C4CC4)n3)C2)oc1C (stereo not shown),-26.35,-49.84
O=C(NCCCOCC1CCCO1)c1cccnc1N1CCOCC1 (stereo not shown),-50.09,22.84
Oc1nnc(-c2cccs2)c2sc(N3CCCCC3)nc12,3.15,7.467
CCCn1cc(C(=O)NCCc2ccc3c(c2)OCO3)c(C)n1,-22.36,-24.75
Cc1noc(CN2CCN(C(=O)c3ccccn3)CC2)n1,6.536,13.7
O=C(c1ccc(NC2CC2)nc1)N1CCCC(n2ccnc2)C1 (stereo not shown),25.19,13.62
Cc1ccc(C(=O)N2CCOC(c3nc(C(C)(C)C)n[nH]3)C2)c(=O)[nH]1 (stereo not shown),-1.554,-3.785 and 1.924
O=C(O)C(F)(F)F.O=C(O)C(F)(F)F.O=C1COC2(CCN(Cc3cccnc3)CC2)CN1c1ccccc1,4.511,8.022
Cc1cc(CN2CCN(C(=O)C3(C#N)CCCC3)CC2)on1,-2.596,-67.04
Cn1c(=O)c2cc(C(=O)NCCOCC(F)(F)F)ccc2n(C)c1=O,-20.76,-5.205
COc1cccc(Cn2c(=O)n(C)c(=O)c3sccc32)c1,3.466,-20.13
CNc1ncc(-c2ccnn2C2CCN(C(C)=O)CC2)cn1,-15.2,6.723
Cc1cc(NC2CCc3nc(C)nn3C2)n2ncnc2n1 (stereo not shown),39.37,-4.633
c1ccc(Cc2nc(CNC3CCOC4(CCOCC4)C3)no2)cc1 (stereo not shown),3.416,-15.21
CN(Cc1ccc(F)cc1)C(=O)CN1CCOC(Cn2cncn2)C1 (stereo not shown),15.56,-22.73
c1cc2c(cc1-c1noc3c1CN(C1CCSC1)CC3)OCO2 (stereo not shown),4.938,41.61
O=C(c1cnc(-c2ccccn2)s1)N1CCCC(n2cccn2)C1 (stereo not shown),-25.18,24.98
Cc1ccoc1C(=O)N1CCCC2(CCCN2S(C)(=O)=O)C1 (stereo not shown),-2.937 and -8.01,-2.729 and -4.175
[H][C@@]12CCCO[C@]1([H])[C@H](N1CCOCC1)CN(C(=O)c1cccn1C)C2,11.24,-1.148 and 24.66
Cc1nc(CN2CCCC(N(C)CCc3ccncc3)C2)no1 (stereo not shown),-1.456,-40.73
CC(C)c1noc(-c2ccc(-n3cnc(C(=O)O)c3)nc2)n1,-5.916,0.02942 and -4.437
COc1ccc(CC2CN(C(=O)c3ocnc3C)CCO2)cc1 (stereo not shown),-30.96,2.024 and -30.49
Fc1ccccc1OCCc1cc(C2CCNC2)n[nH]1 (stereo not shown),-29.85,7.387
CC(C)c1cc(C(=O)N(C)C(C)c2nccs2)no1 (stereo not shown),-8.038,8.547 and 13.67
Cc1nn(C)c(C)c1OCC(=O)N1CCC(O)(C(F)(F)F)CC1,13.87,2.139
COc1cc(C)ccc1OCc1nc(C(=O)N2CCC(C)CC2)co1,4.846,4.178
[H][C@]12CC[C@]([H])(CN(C(=O)c3ccccn3)C1)N(C(=O)OC(C)C)C2,-15.17 and -14.44,-30.82
NC(=O)C1(Cc2ccc(-c3ccccc3)cc2)CCNC1 (stereo not shown),17.96,-16.88
O=C(O)C(F)(F)F.O=C(O)C(F)(F)F.[H][C@@]12OCCN(Cc3ccc(OC)cc3)[C@@]1([H])CC[C@H]2OCCN1CCCC1,-10.66,8.561
CC(=O)Nc1ccc(OCc2noc(C(=O)N3CCCCCC3)n2)cc1,-0.3273,18.72
COc1ccccc1C(NC(=O)C1CCC1)c1noc(C)n1 (stereo not shown),0.1778,-4.516
CN(C)c1ncccc1CNC(=O)NCc1ccco1,-1.653,0.8412
CN(C)C(=O)C1CCN(Cn2nc(-c3ccc(F)cc3)oc2=O)CC1,-3.17,-3.201
CCC(C)NC(=O)Cc1c(C)nc2c(c1C)c(=O)[nH]n2C (stereo not shown),-18.41,-21.68
Cc1cc(CN(C)C(=O)c2cc3c([nH]c2=O)CCCC3=O)no1,4.607,9.961
Cc1nc(O)c2nnn(C[C@H]3CCCN3C(=O)C3CCCC3)c2n1,-15.06,0.5676
CCN1CC2(CC1=O)CN(C(=O)NC(C)C)CCN(C(=O)NC(C)C)C2,-2.341,4.745
CCOCC(O)CN1CCN(C(=O)c2cccc(OC)c2)CC1 (stereo not shown),-4.886,13.57
COc1cccc([C@@H]2CCN(Cc3c[nH]c(C)n3)C[C@H]2O)c1,-62.32,-1.405
CN1CCC2(CC1)CN(C(=O)c1cccnc1)c1ccc(Cl)cc12,-12.59,2.374
Cl.Cl.[H][C@@]12CN(Cc3ccccc3F)C[C@]1([H])C2CN (stereo partly shown),2.836,-28.97
Cc1cnn(CCNCC(O)COc2ccc3ccccc3c2)c1 (stereo not shown),6.893,6.235
NCc1cn(-c2ccccc2C(=O)NCc2ccccc2Cl)cn1,-10.03,-8.645
CCCOc1cc(CNC(=O)Nc2cccnc2N2CCCC2)ccn1,8.528,15.49
[H][C@@]12CCN(Cc3nccs3)[C@]1([H])CC[C@H](C(=O)NCC1CC1)O2,-5.857,7.522
O=C(O)C(F)(F)F.[H][C@@]12CCCO[C@]1([H])[C@H](NC(=O)CC1CC1)CN(Cc1ccco1)C2,-6.089,-22.51 and -9.283
CCN1CCCC(O)(CNCc2ccc3c(c2)OCO3)C1 (stereo not shown),-19.4,0.1161
N#Cc1cccnc1OC1CCN(S(=O)(=O)c2ccc(Br)cc2)CC1,13.47,19.89
CCS(=O)(=O)N1CCC(c2nccn2Cc2ccncc2)CC1,-21.46,-8.088
CCCn1ccnc1-c1cccc(NC2CCOC2)c1 (stereo not shown),-23.96,-21.7
CCN(CC)C(=O)CN(C)C(=O)c1cc(-c2cccc(Cl)c2)no1,-6.434,19.43 and 8.309
Cc1cc(NC(=O)NCCc2ccc3c(c2)OCCO3)n(C)n1,-7.634,11.95

Once more, the final 5:

{"compound": "N#Cc1cccnc1OC1CCN(S(=O)(=O)c2ccc(Br)cc2)CC1", "A": 13.47, "B": 19.89}
{"compound": "CCS(=O)(=O)N1CCC(c2nccn2Cc2ccncc2)CC1", "A": -21.46, "B": -8.088}
{"compound": "CCCn1ccnc1-c1cccc(NC2CCOC2)c1", "stereo": "stereo not shown", "A": -23.96, "B": -21.7}
{"compound": "CCN(CC)C(=O)CN(C)C(=O)c1cc(-c2cccc(Cl)c2)no1", "A": -6.434, "B": "19.43 and 8.309"}
{"compound": "Cc1cc(NC(=O)NCCc2ccc3c(c2)OCCO3)n(C)n1", "A": -7.634, "B": 11.95}